Laboratory results reported in paper PMC7887271, “Fast acting allosteric phosphofructokinase inhibitors block trypanosome glycolysis and cure acute African trypanosomiasis in mice” (Nature Communications, 2021).
Several values for one entry are separate records, joined by “and”; a condition that tells them apart may be missing. Equal values may be shown once. This continues a long series; more values of the same kind are listed elsewhere.

Molecular target: T1, TbPFK (Trypanosoma brucei brucei, UniProt O15648)
T1 construct: made in house; host or cells: Escherichia coli C41 (pET28a, codon optimised gene)
T1 sequence (O15648 1-487): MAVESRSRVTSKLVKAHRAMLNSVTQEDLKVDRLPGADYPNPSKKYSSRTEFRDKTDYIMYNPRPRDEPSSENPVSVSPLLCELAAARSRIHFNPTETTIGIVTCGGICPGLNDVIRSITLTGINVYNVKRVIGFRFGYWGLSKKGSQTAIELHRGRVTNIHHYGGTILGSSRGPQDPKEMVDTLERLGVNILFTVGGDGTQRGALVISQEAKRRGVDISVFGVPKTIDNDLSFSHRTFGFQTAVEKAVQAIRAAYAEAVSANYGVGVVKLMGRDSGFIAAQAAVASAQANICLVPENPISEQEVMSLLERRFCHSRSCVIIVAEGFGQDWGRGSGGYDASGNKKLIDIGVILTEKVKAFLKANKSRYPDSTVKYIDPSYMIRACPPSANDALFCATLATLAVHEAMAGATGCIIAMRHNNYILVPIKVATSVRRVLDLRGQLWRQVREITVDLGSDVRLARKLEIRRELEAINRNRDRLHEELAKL
Experiment: ALDO/G3PDH/TIM linked enzyme assay for measuring PFK inhibition
Assay type: biochemical
Set-up: key: absorbance at 340 nm (NADH)
Procedure: In the PFK/PYK/LDH assay, the linked PYK activity acts to convert the ADP produced by PFK back to ATP. As ATP is an inhibitor of human PFK (but not TbPFK) at concentrations higher than ~0.5 mM the regeneration of ATP is likely to affect the assay readout. An alternative linked assay was therefore developed using PFK/aldolase (ALDO)/glycerol-3-phosphate dehydrogenase (G3PD)/triosephosphate isomerase (TIM). In this assay F16BP produced by PFK is subsequently converted by aldolase into dihydroxyacetone phosphate (DHAP) and glyceraldehyde 3-phosphate (GA3P). TIM interconverts GA3P and DHAP, and DHAP is reduced to glycerol 3-phosphate by G3PD, alongside the oxidation of NADH to NAD^+, which was measured by observing the change in UV absorbance at 340 nm for 10 minutes at 25° C using a Spectramax© M5 Multimode plate reader.
The assay buffer consisted of 50 mM TEA, 100 mM KCl, 10 mM MgCl2, 10% glycerol, 1 mM Tris(2-carboxyethyl)phosphine (TCEP), pH 7.4. Assay mix consisted of 5 U/ml G3PD (Sigma-Aldrich G6880), 2.5 U/ml ALDO (Sigma-Aldrich A2714), 25 U/ml TIM (Sigma-Aldrich T6258), and 1.25 mM NADH. ATP and F6P were obtained from Sigma-Aldrich (A2383 and F3627, respectively). All ligands and substrates (including ATP) were used at pH 7.4). 40 µl of assay mix, followed by 45 µl assay buffer, 4 µl of 0.1 mg/ml PFK and 1 µl of 100x serially diluted inhibitors were added to a non-binding, clear 96-well plate (Greiner Bio-One 655901) and incubated at RT for 10 minutes. The reaction was started by addition of 10 µl of 6 mM F6P (Supplementary Table 1).

For `CN(C)CCn1ccc2c(ccn2Cc2ccc(Cl)c(Cl)c2)c1=O` [CTCB 405], the “TbPFK reaction time course reading (Figure 6a)” value (0.02 uM CTCB 405, time 0.0173611) was 0.6954 and 0.6527, the “TbPFK reaction time course reading (Figure 6a)” value (0.02 uM CTCB 405, time 0.0347222) was 0.668 and 0.6264 and the “TbPFK reaction time course reading (Figure 6a)” value (0.02 uM CTCB 405, time 0.0520833) was 0.6421 and 0.6005. The “TbPFK reaction time course reading (Figure 6a)” value (0.02 uM CTCB 405, time 0.0694444) was 0.6155 and 0.5748, the “TbPFK reaction time course reading (Figure 6a)” value (0.02 uM CTCB 405, time 0.0868056) was 0.59 and 0.5512 and the “TbPFK reaction time course reading (Figure 6a)” value (0.02 uM CTCB 405, time 0.208333) was 0.4552 and 0.4221. For the same compound, the “TbPFK reaction time course reading (Figure 6a)” value (0.02 uM CTCB 405, time 0.225694) was 0.4411 and 0.4086, the “TbPFK reaction time course reading (Figure 6a)” value (0.02 uM CTCB 405, time 0.243056) was 0.4276 and 0.3957 and the “TbPFK reaction time course reading (Figure 6a)” value (0.02 uM CTCB 405, time 0.260417) was 0.4151 and 0.3839. For the same compound, the “TbPFK reaction time course reading (Figure 6a)” value (0.02 uM CTCB 405, time 0.277778) was 0.4041 and 0.3729, the “TbPFK reaction time course reading (Figure 6a)” value (0.02 uM CTCB 405, time 0.295139) was 0.393 and 0.3626 and the “TbPFK reaction time course reading (Figure 6a)” value (0.02 uM CTCB 405, time 0.3125) was 0.3829 and 0.3531. The “TbPFK reaction time course reading (Figure 6a)” value (0.02 uM CTCB 405, time 0.329861) was 0.3734 and 0.3443, the “TbPFK reaction time course reading (Figure 6a)” value (0.02 uM CTCB 405, time 0.347222) was 0.3647 and 0.3359 and the “TbPFK reaction time course reading (Figure 6a)” value (0.02 uM CTCB 405, time 0.364583) was 0.3566 and 0.3283. For the same compound, the “TbPFK reaction time course reading (Figure 6a)” value (0.02 uM CTCB 405, time 0.381944) was 0.3485 and 0.3209, the “TbPFK reaction time course reading (Figure 6a)” value (0.02 uM CTCB 405, time 0.399306) was 0.3417 and 0.3141 and the “TbPFK reaction time course reading (Figure 6a)” value (0.02 uM CTCB 405, time 0.416667) was 0.3347 and 0.3075. For the same compound, the “TbPFK reaction time course reading (Figure 6a)” value (0.05 uM CTCB 405, time 0.0173611) was 0.7223 and 0.6756, the “TbPFK reaction time course reading (Figure 6a)” value (0.05 uM CTCB 405, time 0.0347222) was 0.7007 and 0.6527 and the “TbPFK reaction time course reading (Figure 6a)” value (0.05 uM CTCB 405, time 0.0520833) was 0.6774 and 0.631. The “TbPFK reaction time course reading (Figure 6a)” value (0.05 uM CTCB 405, time 0.0694444) was 0.655 and 0.6101, the “TbPFK reaction time course reading (Figure 6a)” value (0.05 uM CTCB 405, time 0.0868056) was 0.634 and 0.5888 and the “TbPFK reaction time course reading (Figure 6a)” value (0.05 uM CTCB 405, time 0.208333) was 0.5056 and 0.4691. The “TbPFK reaction time course reading (Figure 6a)” value (0.05 uM CTCB 405, time 0.225694) was 0.4915 and 0.4552, the “TbPFK reaction time course reading (Figure 6a)” value (0.05 uM CTCB 405, time 0.243056) was 0.4792 and 0.4424 and the “TbPFK reaction time course reading (Figure 6a)” value (0.05 uM CTCB 405, time 0.260417) was 0.4665 and 0.4301. For the same compound, the “TbPFK reaction time course reading (Figure 6a)” value (0.05 uM CTCB 405, time 0.277778) was 0.4541 and 0.4185, the “TbPFK reaction time course reading (Figure 6a)” value (0.05 uM CTCB 405, time 0.295139) was 0.4426 and 0.4074 and the “TbPFK reaction time course reading (Figure 6a)” value (0.05 uM CTCB 405, time 0.3125) was 0.4316 and 0.3967. For the same compound, the “TbPFK reaction time course reading (Figure 6a)” value (0.05 uM CTCB 405, time 0.329861) was 0.4203 and 0.3871, the “TbPFK reaction time course reading (Figure 6a)” value (0.05 uM CTCB 405, time 0.347222) was 0.4095 and 0.3781 and the “TbPFK reaction time course reading (Figure 6a)” value (0.05 uM CTCB 405, time 0.364583) was 0.3992 and 0.3696. For the same compound, the “TbPFK reaction time course reading (Figure 6a)” value (0.05 uM CTCB 405, time 0.381944) was 0.3902 and 0.3609, the “TbPFK reaction time course reading (Figure 6a)” value (0.05 uM CTCB 405, time 0.399306) was 0.3817 and 0.3533 and the “TbPFK reaction time course reading (Figure 6a)” value (0.05 uM CTCB 405, time 0.416667) was 0.3738 and 0.3459. For the same compound, the “TbPFK reaction time course reading (Figure 6a)” value (0.43 uM CTCB 405, time 0.0173611) was 0.7862 and 0.7538, the “TbPFK reaction time course reading (Figure 6a)” value (0.43 uM CTCB 405, time 0.0347222) was 0.7839 and 0.7503 and the “TbPFK reaction time course reading (Figure 6a)” value (0.43 uM CTCB 405, time 0.0520833) was 0.7808 and 0.748. The “TbPFK reaction time course reading (Figure 6a)” value (0.43 uM CTCB 405, time 0.0694444) was 0.777 and 0.7459, the “TbPFK reaction time course reading (Figure 6a)” value (0.43 uM CTCB 405, time 0.0868056) was 0.7745 and 0.7417 and the “TbPFK reaction time course reading (Figure 6a)” value (0.43 uM CTCB 405, time 0.225694) was 0.7425 and 0.7133. For the same compound, the “TbPFK reaction time course reading (Figure 6a)” value (0.43 uM CTCB 405, time 0.243056) was 0.738 and 0.7079, the “TbPFK reaction time course reading (Figure 6a)” value (0.43 uM CTCB 405, time 0.260417) was 0.7348 and 0.7042 and the “TbPFK reaction time course reading (Figure 6a)” value (0.43 uM CTCB 405, time 0.277778) was 0.7295 and 0.6999. The “TbPFK reaction time course reading (Figure 6a)” value (0.43 uM CTCB 405, time 0.295139) was 0.7252 and 0.696, the “TbPFK reaction time course reading (Figure 6a)” value (0.43 uM CTCB 405, time 0.3125) was 0.7216 and 0.6905 and the “TbPFK reaction time course reading (Figure 6a)” value (0.43 uM CTCB 405, time 0.329861) was 0.7163 and 0.6868. The “TbPFK reaction time course reading (Figure 6a)” value (0.43 uM CTCB 405, time 0.347222) was 0.7115 and 0.6824, the “TbPFK reaction time course reading (Figure 6a)” value (0.43 uM CTCB 405, time 0.364583) was 0.7074 and 0.6774 and the “TbPFK reaction time course reading (Figure 6a)” value (0.43 uM CTCB 405, time 0.381944) was 0.7033 and 0.6732. The “TbPFK reaction time course reading (Figure 6a)” value (0.43 uM CTCB 405, time 0.399306) was 0.699 and 0.6691, the “TbPFK reaction time course reading (Figure 6a)” value (0.43 uM CTCB 405, time 0.416667) was 0.6942 and 0.6647 and the “TbPFK reaction time course reading (Figure 6a)” value (1.29 uM CTCB 405, time 0.0173611) was 0.8099 and 0.7689. The “TbPFK reaction time course reading (Figure 6a)” value (1.29 uM CTCB 405, time 0.0347222) was 0.8089 and 0.7697, the “TbPFK reaction time course reading (Figure 6a)” value (1.29 uM CTCB 405, time 0.0520833) was 0.8094 and 0.7682 and the “TbPFK reaction time course reading (Figure 6a)” value (1.29 uM CTCB 405, time 0.0694444) was 0.8092 and 0.769. For the same compound, the “TbPFK reaction time course reading (Figure 6a)” value (1.29 uM CTCB 405, time 0.0868056) was 0.8086 and 0.769, the “TbPFK reaction time course reading (Figure 6a)” value (1.29 uM CTCB 405, time 0.208333) was 0.804 and 0.7671 and the “TbPFK reaction time course reading (Figure 6a)” value (1.29 uM CTCB 405, time 0.225694) was 0.8037 and 0.7653. For the same compound, the “TbPFK reaction time course reading (Figure 6a)” value (1.29 uM CTCB 405, time 0.243056) was 0.8025 and 0.7652 and the “TbPFK reaction time course reading (Figure 6a)” value (1.29 uM CTCB 405, time 0.260417) was 0.8007 and 0.7645.
